According to PubChem BioAssay AID1347076 (National Center for Advancing Translational Sciences (NCATS), 2019):
Values joined by “and” are separate entries in the source; they are usually repeats but may differ in a detail not shown here. Equal entries are not always repeated. The campaign covered roughly 400,000 compounds. About 13,000 (3.2%) were called active. The shares of active, inactive and inconclusive entries below differ from those in the screen. Calls follow the shape of the dose curve; as a rule, active = well fitted cell-killing curve with a large enough effect; inconclusive = small, poorly fitted or top-dose-only effect, or effect the other way; inactive = flat fitted curve, though single readings scatter. A potency beside an inconclusive call is a rough fit, not a confirmed value.

assay: qHTS assay for MDR1-selective chemotherapeutics: Primary screen using the drug-selected MDR subline cells KB-V1; conditions: KB-V1 MDR cells viability, CellTiter-Glo, 72 h; activity change, negative = cytotoxicity: at 46.1 µM (top of the series); also: nearly all actives have a fitted effect of over 60% in size
In short: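 Cytotoxicity toward P-gp-expressing KB-V1 cells was determined as loss of CellTiter-Glo luminescence after 72 h at 37 degrees C. Compounds were tested in quantitative HTS format across a concentration range, with curves fitted to normalized data.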
% is scaled to controls: 0 for no effect and ±100 for the full control effect; potency is read from the fitted curve at half-maximal effect.

Row | SMILES | Potency | activity change, negative = cytotoxicity
1 | CCn1c(COc2ccccc2Cl)nnc1SCC(=O)Nc1ncccc1C | inconclusive: 2.06 µM [cytotoxic, full curve] | –
2 | Cc1occc1C(=O)N/N=C/c1ccccc1[N+](=O)[O-] | inconclusive: 20.6 µM [cytotoxic, partial curve, poor fit] | –
3 | O=C(C(O)c1ccc(Br)cc1)N1CCC(Nc2ccc3[nH]ncc3c2)CC1 (stereo not drawn) | inconclusive: 23.1 µM [cytotoxic, partial curve, poor fit] | –
4 | Cc1ccc(OCc2ccc(C(=O)N3CCOCC3)cc2)cc1C | active: 18.4 µM | –
5 | COc1ccc(Br)cc1[C@H]1[C@@H]2C=CCC[C@@]2(C)C(=O)N1Cc1ccccc1 | inconclusive: 25.9 µM [cytotoxic, single point] | –
6 | COC(=O)c1cc2sccc2n1Cc1ccc(C)cc1 | inconclusive: 10.3 µM [cytotoxic, partial curve] | –
7 | Cc1ccc(-n2nc3c(=O)n(C(C)C(=O)NCCc4cccs4)nc(C)c3c2C)cc1 (stereo not drawn) | inconclusive: 29.1 µM [cytotoxic, single point] | –
8 | CC(=O)O[C@]1(C(C)=O)CC[C@H]2[C@@H]3C=C(Cl)C4=CC(=O)[C@@H]5C[C@@H]5[C@]4(C)[C@H]3CC[C@@]21C | inconclusive: 10.3 µM [cytotoxic, partial curve, poor fit] and inconclusive: 20.6 µM [cytotoxic, single point] | –
9 | COc1ccc(-c2csc(NC(=O)c3ccccc3F)n2)cc1 | inactive | –
10 | COc1ccc(-c2cnc(C(O)c3ccc(C(C)(C)C)cc3)[nH]2)cc1 (stereo not drawn) | inconclusive: 20.6 µM [cytotoxic, single point] | –
11 | Cc1ccccc1C(=O)NC[C@@H]1CCCN2CCCC[C@H]12 | inconclusive: 16.4 µM [rising, partial curve, poor fit] | –
12 | CC(=O)Nc1ccc(Nc2nc(-c3sc(C)nc3C)cs2)cc1 | inactive | –
13 | Cc1ccc(C)c(C(=O)COC(=O)c2cc(S(=O)(=O)N3CCOCC3)ccc2F)c1 | inactive | –
14 | O=C(c1cccc(S(=O)(=O)N2CCOCC2)c1)N(Cc1nnc(-c2ccccc2Cl)o1)C1CC1 | inconclusive: 23.1 µM [cytotoxic, partial curve, poor fit] | –
15 | CCOC(=O)C(Sc1nn(C)c(=S)s1)C(C)=O (stereo not drawn) | inconclusive: 20.6 µM [cytotoxic, single point] | –
16 | COc1cccc(N(CC(=O)N2CCN(Cc3ccccc3)CC2)S(C)(=O)=O)c1 | inconclusive: 20.6 µM [cytotoxic, single point] | –
17 | CCOc1ccc(N(C(=O)c2ccc3c(c2)OCO3)C2C=CS(=O)(=O)C2)cc1 (stereo not drawn) | inconclusive: 18.4 µM [cytotoxic, single point] | –
18 | COc1ccc(-c2noc(-c3cccc(Cl)c3)n2)cc1OC | inconclusive: 23.1 µM [cytotoxic, partial curve, poor fit] | –
19 | Cc1cccc(NC(=O)c2nc[nH]c2C(=O)N[C@@H](CC(C)C)C(=O)OC(C)(C)C)c1 | inconclusive: 29.1 µM [cytotoxic, single point] | –
20 | CC(C)C(=O)NC(Nc1ccccc1F)C(Cl)(Cl)Cl (stereo not drawn) | inconclusive: 10.3 µM [cytotoxic, partial curve] | –
21 | CC(=O)c1ccc(NS(=O)(=O)c2ccc(C(C)(C)C)cc2)cc1 | inconclusive: 18.4 µM [cytotoxic, partial curve, poor fit] | –
22 | COC(=O)C1CCN(C(=O)COC(=O)c2oc3ccccc3c2C)CC1 | inactive | –
23 | Cc1cc(C)n(-c2ccc(NC(=O)C3CCCCN3C(=O)c3sccc3C)cc2)n1 (stereo not drawn) | inconclusive: 7.31 µM [cytotoxic, partial curve] | –

Whole records from above.
CCn1c(COc2ccccc2Cl)nnc1SCC(=O)Nc1ncccc1C in the list: Potency: inconclusive: 2.06 µM [cytotoxic, full curve]
COc1cccc(N(CC(=O)N2CCN(Cc3ccccc3)CC2)S(C)(=O)=O)c1 in the list: Potency: inconclusive: 20.6 µM [cytotoxic, single point]
COC(=O)C1CCN(C(=O)COC(=O)c2oc3ccccc3c2C)CC1 in the list: Potency: inactive
Cc1ccc(OCc2ccc(C(=O)N3CCOCC3)cc2)cc1C in the list: Potency: active: 18.4 µM

Two compounds drawn at random from those above, as already listed:
Row | SMILES | Potency | activity change, negative = cytotoxicity
23 | Cc1cc(C)n(-c2ccc(NC(=O)C3CCCCN3C(=O)c3sccc3C)cc2)n1 (stereo not drawn) | inconclusive: 7.31 µM [cytotoxic, partial curve] | –
11 | Cc1ccccc1C(=O)NC[C@@H]1CCCN2CCCC[C@H]12 | inconclusive: 16.4 µM [rising, partial curve, poor fit] | –

(list continues)

Row | SMILES | Potency | activity change, negative = cytotoxicity
24 | COc1ccc(N2CCN(C(=O)CN3CCSc4ccccc43)CC2)cc1 | inconclusive: 14.6 µM [cytotoxic, partial curve] | –
25 | COc1cccc2sc(NC(=O)c3ccc(S(=O)(=O)N4CCOCC4)cc3)nc12 | inconclusive: 29.1 µM [cytotoxic, single point] | –
26 | CCc1ccc(C2=NN(S(C)(=O)=O)C(c3cccs3)C2)cc1 (stereo not drawn) | active: 14.6 µM | –
27 | COc1ccccc1CNC(=O)Cn1c(-c2ccc(F)cc2)cc(C(C)=O)c1C | inactive | –
28 | CCN(CC)CCN(C(=O)c1ccco1)c1nc2c(C)c(C)ccc2s1 | inactive | –
29 | CSc1nsc(SC)c1NC(=O)OCCc1ccccn1 | inactive | –
30 | C=CCn1c(SCC(=O)Nc2ccccc2C)nc(O)cc1=O | inactive | –
31 | Cc1ccc(N(C)C(=O)c2ccc(CNc3c(N4CCC(C)CC4)c(=O)c3=O)cc2)cc1 | inactive | –
32 | CN(C)CCCN(C(=O)c1ccc(C(=O)c2ccccc2)cc1)c1nc2cc3c(cc2s1)OCO3 | active: 20.6 µM | –
33 | CC(C)c1onc(C(=O)N2CCCCC2C)c1[N+](=O)[O-] (stereo not drawn) | – | inconclusive: -35.5%
34 | CN(C)S(=O)(=O)c1ccc(C(=O)NCCSc2c(-c3ccc(Br)cc3)[nH]c3ccccc23)cc1 | inactive | –
35 | NC(=O)c1ccc(Oc2ccc(Cl)c3ccccc23)c([N+](=O)[O-])c1 | inconclusive: 20.6 µM [cytotoxic, single point] | –
36 | CCCCNC(=O)CC1Nc2cc(C)c(C)cc2NC1=O (stereo not drawn) | inactive | –
37 | Cc1noc(C)c1C(=O)Nc1ccc(F)cc1F | inactive | –
38 | O=C(Nc1ccc2nc3n(c(=O)c2c1)CCCCC3)c1ccccc1[N+](=O)[O-] | inconclusive: 29.1 µM [cytotoxic, single point] | –
39 | CC1CCCCN1C(=O)COC(=O)c1cc([N+](=O)[O-])ccc1N (stereo not drawn) | active: 16.4 µM | –
40 | Cc1ccc(NC(=O)C2CCCN(c3ncnc4onc(C)c34)C2)c(Cl)c1 (stereo not drawn) | inconclusive: 1.64 µM [cytotoxic, full curve] | –
41 | CSc1nnc(-c2cccn(Cc3ccccc3)c2=O)o1 | inactive | –
42 | COc1cc(OC)cc(C(=O)NC(C)c2ccc(Br)cc2)c1 (stereo not drawn) | inactive | –
43 | CSc1ccccc1OCc1cc(C(=O)N2CCCC(C)C2)no1 (stereo not drawn) | inconclusive: 13 µM [cytotoxic, partial curve, poor fit] | –
44 | O=C(Cc1cccs1)NCCS(=O)(=O)N1CCN(c2cccc(Cl)c2)CC1 | inconclusive: 18.4 µM [cytotoxic, single point] | –
45 | Nc1c2c(=O)oc(-c3ccccc3)cc2nn1-c1ccccc1 | active: 11.6 µM | –
46 | CCCCCCCCCCCCCCCC[n+]1ccc(/C=C/c2c[nH]c3ccccc23)cc1 | inconclusive: 23.1 µM [cytotoxic, single point] | –

Row | SMILES | Potency | activity change, negative = cytotoxicity
47 | CN(CCO)c1ncnc2c1sc1nc(N3CCOCC3)c3c(c12)CCC3 | inconclusive: 4.61 µM [cytotoxic, partial curve] | –
48 | O=C(Nc1ccc(Cl)cc1)N1CCOCC1 | inconclusive: 25.9 µM [rising, single point] | –
49 | CC(C)CN1CCNC(=O)C1CC(=O)NCCc1cnn(-c2ccccc2)c1 (stereo not drawn) | inactive | –
50 | C[C@H]1CN([C@@H](C)CO)C(=O)CCCn2nncc2CO[C@@H]1CN(C)C(=O)Nc1ccnc(N2CCOCC2)c1 | inactive | –
51 | CSc1ccc(CN2CCN(Cc3ccc([N+](=O)[O-])cc3)CC2)cc1 | active: 2.06 µM | –
52 | CCN(CC)Cc1c(-c2ccccc2)[nH]c2ccc(C)cc2c1=O | inconclusive: 16.4 µM [cytotoxic, single point] | –
53 | O=C1c2ccccc2C(=O)C1c1ccc(Cl)cc1 | inconclusive: 23.1 µM [rising, single point] | –
54 | CCC(Sc1ncc(S(=O)(=O)c2ccc(C)cc2)c(=O)[nH]1)C(=O)Nc1cc(C)ccc1C (stereo not drawn) | inactive | –
55 | CC(Sc1nnnn1C1CCCC1)C(=O)Nc1cccc(S(=O)(=O)N2CCOCC2)c1 (stereo not drawn) | inconclusive: 29.1 µM [cytotoxic, single point] | –
56 | COc1ccc(OC)c(S(=O)(=O)N2CCN(C)CC2)c1 | inconclusive: 2.59 µM [rising, partial curve] | –
57 | Cc1ccc(NC(=O)C2CCN(C(=O)c3ccccc3C)CC2)nc1 | inconclusive: 16.4 µM [cytotoxic, partial curve, poor fit] | –
58 | O=C(Nc1c(C(=O)c2ccc(Cl)cc2)oc2ccccc12)c1cc(=O)c2ccccc2o1 | inconclusive: 29.1 µM [rising, single point] | –
59 | C(=Nc1ccc(/C=C/c2ccnc3ccccc23)cc1)Nc1ccc(/C=C/c2ccnc3ccccc23)cc1 | inconclusive: 29.1 µM [cytotoxic, single point] | –
60 | NC(=O)CSc1nnc(NC(=O)C23CC4CC(CC(C4)C2)C3)s1 | inconclusive: 1.3 µM [rising, partial curve, poor fit] | –
61 | O=[N+]([O-])c1ccc(CP(=O)(c2ccccc2)c2ccccc2)cc1 | inconclusive: 23.1 µM [cytotoxic, single point] | –
62 | Cn1nnnc1SCCCNCc1cccc(OCc2ccccc2F)c1 | inactive | –
63 | COc1ccc(C(CNC(=O)c2cc3ccccc3cc2OC)N2CCCC2)cc1 (stereo not drawn) | active: 4.61 µM | –
64 | Cc1ccc(Oc2cc(NC(=O)CCCn3nc(C)c([N+](=O)[O-])c3C)cc([N+](=O)[O-])c2)cc1 | active: 10.3 µM | –
65 | CCOc1ccccc1C1CC(c2cccc(NS(C)(=O)=O)c2)=NN1C(=O)c1ccccc1 (stereo not drawn) | inconclusive: 20.6 µM [cytotoxic, single point] | –
66 | O=C(Nc1ccc(NC(=S)NC(=O)c2cccs2)cc1)c1ccccc1 | inconclusive: 1.84 µM [cytotoxic, full curve, poor fit] | –
67 | CN1CCN(Cc2c(O)ccc3cc(-c4ccccn4)c(=O)oc23)CC1 | inconclusive: 0.92 µM [rising, full curve, poor fit] | –
68 | COC(=O)/C=C/c1cnc[nH]1 | inconclusive: 29.1 µM [cytotoxic, single point] | –
